Measurements published in patent EP4603501A1, “PEPTIDE WHICH PROMOTES HAIR GROWTH AND INHIBITS HAIR LOSS, AND USE THEREOF” (Caregen Co., Ltd., priority 2022, dated 2024).
Part of at least one peptide drawing is inferred or uncertain, most often the ends. Peptide text beside a SMILES is read from it.

Columns and labels:
[1] = test system: human hair follicle dermal papilla cells (HHFDPCs); assay: Proliferation of human hair follicle dermal papilla cells (MTT assay); format: cell-based; conditions: peptide at 10 µM and 100 µM, 72 hours, compared to the negative control (con), FIG. 1
[2] = test system: human hair outer root sheath cells (HHORSCs); assay: Proliferation of human hair outer root sheath cells (MTT assay); format: cell-based; conditions: peptide at 50 µM and 100 µM, 72 hours, compared to the negative control group (con), FIG. 2
LEF-1 = assay: Expression of beta-catenin downstream gene LEF-1 in HHFDPCs (RT-PCR); format: cell-based, human; conditions: peptide at 10 µM, 50 µM, and 100 µM, 24 hours, FIGS. 3a and 3b
Cyclin D1 = assay: Expression of beta-catenin downstream gene Cyclin D1 in HHFDPCs (RT-PCR); format: cell-based, human; conditions: peptide at 10 µM, 50 µM, and 100 µM, 24 hours, FIGS. 3a and 3b
c-Myc = assay: Expression of beta-catenin downstream gene c-Myc in HHFDPCs (RT-PCR); format: cell-based, human; conditions: peptide at 10 µM, 50 µM, and 100 µM, 24 hours, FIGS. 3a and 3b
bFGF = assay: Expression of growth factor bFGF in HHFDPCs (RT-PCR); format: cell-based, human; conditions: peptide at 10 µM, 50 µM, and 100 µM, 24 hours, FIGS. 4a and 4b
HGF = assay: Expression of growth factor HGF in HHFDPCs (RT-PCR); format: cell-based, human; conditions: peptide at 10 µM, 50 µM, and 100 µM, 24 hours, FIGS. 4a and 4b
KGF = assay: Expression of growth factor KGF in HHFDPCs (RT-PCR); format: cell-based, human; conditions: peptide at 10 µM, 50 µM, and 100 µM, 24 hours, FIGS. 4a and 4b
VEGF = assay: Expression of growth factor VEGF in HHFDPCs (RT-PCR); format: cell-based, human; conditions: peptide at 10 µM, 50 µM, and 100 µM, 24 hours, FIGS. 4a and 4b
DKK-1 = assay: Expression of DHT-induced hair loss protein DKK-1 in HHFDPCs (Western blot); format: cell-based, human; conditions: peptide at 10 µM, 50 µM, and 100 µM with 100 nM DHT, 24 hours, FIGS. 5a and 5b

C[C@H](NC(=O)[C@@H]1CCCN1C(=O)[C@@H](N)Cc1c[nH]cn1)C(=O)N[C@@H](C)C(=O)N1CCC[C@H]1C(=O)N[C@@H](CCC(N)=O)C(=O)O [peptide of Preparation Example 1, HPAAPQ (His-Pro-Ala-Ala-Pro-Gln)] (H-HPAAPQ-OH)
proliferation of HHFDPCs [1]: promoted the proliferation | proliferation of HHORSC [2]: promoted the proliferation | expression of LEF-1 (LEF-1): increasing the expression | expression of Cyclin D1 (Cyclin D1): increasing the expression | expression of c-Myc (c-Myc): increasing the expression | expression of bFGF (bFGF): increasing the expression | expression of HGF (HGF): increasing the expression | expression of KGF (KGF): increasing the expression | expression of VEGF (VEGF): increasing the expression | expression of DKK-1, a hair loss protein induced by DHT treatment (DKK-1): reduced in a concentration-dependent manner
